Source: the supplement of paper PMC10849652
This is one part of the list.

The chains behind the UniProt entries cited, without tags or fusion partners. Where a name states a change or a piece, a line headed by the entry shows the natural chain unless it says otherwise.
UniProt Q6IAN0: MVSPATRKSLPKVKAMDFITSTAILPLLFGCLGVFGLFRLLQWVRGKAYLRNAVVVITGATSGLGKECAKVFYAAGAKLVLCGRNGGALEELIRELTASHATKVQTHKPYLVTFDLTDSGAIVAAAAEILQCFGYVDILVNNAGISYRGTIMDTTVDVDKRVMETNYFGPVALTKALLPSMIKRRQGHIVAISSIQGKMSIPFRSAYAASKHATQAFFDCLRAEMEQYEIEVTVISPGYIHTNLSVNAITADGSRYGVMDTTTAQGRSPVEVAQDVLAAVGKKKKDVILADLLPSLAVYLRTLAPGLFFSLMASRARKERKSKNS
UniProt Q96KC8: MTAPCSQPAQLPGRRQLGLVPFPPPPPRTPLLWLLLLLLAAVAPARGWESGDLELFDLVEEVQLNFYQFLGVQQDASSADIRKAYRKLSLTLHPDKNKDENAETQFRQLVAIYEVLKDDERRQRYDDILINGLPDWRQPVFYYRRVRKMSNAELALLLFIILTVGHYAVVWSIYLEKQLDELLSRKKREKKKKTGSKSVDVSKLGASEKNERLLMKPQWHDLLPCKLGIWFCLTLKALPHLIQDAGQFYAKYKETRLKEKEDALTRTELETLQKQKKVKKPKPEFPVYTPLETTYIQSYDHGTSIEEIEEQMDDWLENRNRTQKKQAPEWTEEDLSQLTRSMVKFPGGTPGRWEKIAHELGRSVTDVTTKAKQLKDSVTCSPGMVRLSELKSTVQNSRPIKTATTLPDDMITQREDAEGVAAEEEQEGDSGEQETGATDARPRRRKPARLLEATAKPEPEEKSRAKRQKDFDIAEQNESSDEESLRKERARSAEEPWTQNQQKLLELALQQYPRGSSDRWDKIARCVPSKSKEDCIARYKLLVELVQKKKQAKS
UniProt Q13268: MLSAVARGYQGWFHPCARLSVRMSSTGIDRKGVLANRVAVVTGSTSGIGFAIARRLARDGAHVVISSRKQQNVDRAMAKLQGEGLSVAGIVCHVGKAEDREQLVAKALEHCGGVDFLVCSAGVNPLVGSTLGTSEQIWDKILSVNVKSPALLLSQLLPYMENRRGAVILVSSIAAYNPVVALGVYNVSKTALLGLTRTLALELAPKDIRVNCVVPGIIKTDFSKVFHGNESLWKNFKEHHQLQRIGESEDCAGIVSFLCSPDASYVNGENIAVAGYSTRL
UniProt Q68CQ4: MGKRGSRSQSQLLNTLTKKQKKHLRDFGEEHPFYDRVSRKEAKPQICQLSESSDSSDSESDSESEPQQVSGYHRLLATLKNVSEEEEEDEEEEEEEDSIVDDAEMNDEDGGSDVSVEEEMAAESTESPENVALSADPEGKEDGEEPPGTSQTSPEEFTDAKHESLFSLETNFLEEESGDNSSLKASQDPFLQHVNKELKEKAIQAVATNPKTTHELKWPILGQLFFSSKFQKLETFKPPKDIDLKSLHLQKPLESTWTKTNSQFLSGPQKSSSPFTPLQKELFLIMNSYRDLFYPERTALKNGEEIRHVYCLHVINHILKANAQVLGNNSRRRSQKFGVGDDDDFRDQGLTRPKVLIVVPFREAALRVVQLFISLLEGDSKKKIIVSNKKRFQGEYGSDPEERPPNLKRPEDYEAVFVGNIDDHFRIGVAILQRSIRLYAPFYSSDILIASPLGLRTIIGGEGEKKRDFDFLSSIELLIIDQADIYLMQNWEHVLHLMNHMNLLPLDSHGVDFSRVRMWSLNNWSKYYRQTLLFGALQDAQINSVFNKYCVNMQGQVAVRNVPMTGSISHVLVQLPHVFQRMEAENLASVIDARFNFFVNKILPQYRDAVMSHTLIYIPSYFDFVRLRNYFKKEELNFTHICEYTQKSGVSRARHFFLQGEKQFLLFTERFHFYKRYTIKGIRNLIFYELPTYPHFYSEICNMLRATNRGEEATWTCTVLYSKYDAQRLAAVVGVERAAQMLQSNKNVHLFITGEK
UniProt P49366: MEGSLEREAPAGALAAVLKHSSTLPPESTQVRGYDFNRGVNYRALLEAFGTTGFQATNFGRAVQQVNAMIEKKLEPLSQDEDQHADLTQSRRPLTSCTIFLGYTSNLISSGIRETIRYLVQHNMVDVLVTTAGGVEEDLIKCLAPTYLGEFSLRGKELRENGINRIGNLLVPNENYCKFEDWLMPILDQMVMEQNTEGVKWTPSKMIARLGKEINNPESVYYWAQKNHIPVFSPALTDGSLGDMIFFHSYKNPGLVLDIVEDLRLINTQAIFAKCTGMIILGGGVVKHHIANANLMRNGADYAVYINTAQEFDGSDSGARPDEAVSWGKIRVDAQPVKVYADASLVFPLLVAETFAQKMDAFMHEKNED
UniProt Q9UPQ8: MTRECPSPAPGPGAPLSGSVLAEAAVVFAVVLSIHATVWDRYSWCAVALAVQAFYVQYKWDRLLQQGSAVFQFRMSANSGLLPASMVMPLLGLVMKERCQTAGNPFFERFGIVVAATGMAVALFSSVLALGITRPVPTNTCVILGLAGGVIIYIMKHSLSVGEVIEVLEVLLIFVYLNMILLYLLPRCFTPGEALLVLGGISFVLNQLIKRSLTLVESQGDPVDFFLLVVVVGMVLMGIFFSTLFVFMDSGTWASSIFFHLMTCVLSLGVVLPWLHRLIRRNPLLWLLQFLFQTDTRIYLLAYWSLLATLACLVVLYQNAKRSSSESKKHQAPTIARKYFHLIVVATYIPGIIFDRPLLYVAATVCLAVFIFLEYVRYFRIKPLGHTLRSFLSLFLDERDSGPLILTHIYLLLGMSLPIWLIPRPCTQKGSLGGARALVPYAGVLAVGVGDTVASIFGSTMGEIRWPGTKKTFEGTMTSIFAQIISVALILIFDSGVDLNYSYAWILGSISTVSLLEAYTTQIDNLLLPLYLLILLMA
UniProt P52429: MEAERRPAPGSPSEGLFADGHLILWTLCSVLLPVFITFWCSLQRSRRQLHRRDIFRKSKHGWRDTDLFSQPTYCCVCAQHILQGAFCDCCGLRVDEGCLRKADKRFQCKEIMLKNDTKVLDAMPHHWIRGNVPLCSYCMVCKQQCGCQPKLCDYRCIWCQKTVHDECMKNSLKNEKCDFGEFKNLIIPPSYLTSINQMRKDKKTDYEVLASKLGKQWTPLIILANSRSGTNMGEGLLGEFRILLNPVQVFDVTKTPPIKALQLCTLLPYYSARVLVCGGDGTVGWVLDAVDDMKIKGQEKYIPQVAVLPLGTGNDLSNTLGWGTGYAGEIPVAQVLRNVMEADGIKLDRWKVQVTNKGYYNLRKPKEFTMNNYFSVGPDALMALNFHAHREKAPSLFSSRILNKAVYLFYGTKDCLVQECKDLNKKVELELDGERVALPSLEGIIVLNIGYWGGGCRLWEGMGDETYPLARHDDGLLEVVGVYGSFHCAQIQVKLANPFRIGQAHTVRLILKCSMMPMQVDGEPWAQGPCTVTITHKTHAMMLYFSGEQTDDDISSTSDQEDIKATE
UniProt Q14689: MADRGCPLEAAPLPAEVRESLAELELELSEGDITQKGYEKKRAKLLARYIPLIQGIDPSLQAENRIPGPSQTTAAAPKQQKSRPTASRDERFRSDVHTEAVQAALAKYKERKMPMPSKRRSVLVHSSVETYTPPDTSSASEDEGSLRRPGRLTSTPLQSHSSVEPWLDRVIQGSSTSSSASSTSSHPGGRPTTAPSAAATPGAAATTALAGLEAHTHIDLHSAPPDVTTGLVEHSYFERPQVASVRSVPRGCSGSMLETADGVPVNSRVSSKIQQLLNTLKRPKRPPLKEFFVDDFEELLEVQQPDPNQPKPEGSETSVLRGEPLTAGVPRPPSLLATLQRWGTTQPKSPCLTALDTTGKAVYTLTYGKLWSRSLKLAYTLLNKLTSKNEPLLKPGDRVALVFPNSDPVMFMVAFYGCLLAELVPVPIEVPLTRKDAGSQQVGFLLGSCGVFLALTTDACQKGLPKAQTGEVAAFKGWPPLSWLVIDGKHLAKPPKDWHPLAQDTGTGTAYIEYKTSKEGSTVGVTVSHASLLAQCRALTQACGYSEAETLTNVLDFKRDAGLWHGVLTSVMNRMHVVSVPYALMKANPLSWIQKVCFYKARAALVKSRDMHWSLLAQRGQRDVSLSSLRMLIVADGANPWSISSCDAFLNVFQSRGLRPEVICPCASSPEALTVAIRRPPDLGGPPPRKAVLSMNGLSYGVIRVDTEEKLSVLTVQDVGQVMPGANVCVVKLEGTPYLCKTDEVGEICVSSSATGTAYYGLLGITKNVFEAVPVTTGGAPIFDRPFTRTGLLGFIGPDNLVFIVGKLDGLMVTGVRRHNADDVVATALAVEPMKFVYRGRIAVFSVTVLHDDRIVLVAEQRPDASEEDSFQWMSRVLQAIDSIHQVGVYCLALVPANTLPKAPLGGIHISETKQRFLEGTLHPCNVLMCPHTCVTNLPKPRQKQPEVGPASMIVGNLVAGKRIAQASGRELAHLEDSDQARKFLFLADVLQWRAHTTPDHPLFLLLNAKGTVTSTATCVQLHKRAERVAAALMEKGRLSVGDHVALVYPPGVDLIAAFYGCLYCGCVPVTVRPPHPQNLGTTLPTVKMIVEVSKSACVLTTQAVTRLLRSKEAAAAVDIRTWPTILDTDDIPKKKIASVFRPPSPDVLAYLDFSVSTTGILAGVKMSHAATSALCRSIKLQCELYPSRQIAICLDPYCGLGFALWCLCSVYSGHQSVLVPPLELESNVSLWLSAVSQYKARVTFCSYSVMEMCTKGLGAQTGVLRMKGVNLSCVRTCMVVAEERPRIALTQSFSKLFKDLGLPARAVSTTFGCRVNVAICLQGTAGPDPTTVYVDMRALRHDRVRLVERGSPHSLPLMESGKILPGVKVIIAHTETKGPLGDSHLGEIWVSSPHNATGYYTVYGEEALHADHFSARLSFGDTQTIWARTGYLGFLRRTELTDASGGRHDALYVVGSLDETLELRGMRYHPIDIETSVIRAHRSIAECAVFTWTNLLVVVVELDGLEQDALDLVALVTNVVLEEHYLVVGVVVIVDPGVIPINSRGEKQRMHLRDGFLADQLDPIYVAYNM
UniProt Q9H3Z4: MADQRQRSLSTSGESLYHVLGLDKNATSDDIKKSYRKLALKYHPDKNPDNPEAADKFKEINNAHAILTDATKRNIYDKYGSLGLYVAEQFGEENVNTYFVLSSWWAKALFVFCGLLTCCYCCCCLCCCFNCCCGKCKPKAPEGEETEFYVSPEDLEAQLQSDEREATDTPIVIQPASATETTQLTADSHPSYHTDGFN
UniProt Q9UKB3: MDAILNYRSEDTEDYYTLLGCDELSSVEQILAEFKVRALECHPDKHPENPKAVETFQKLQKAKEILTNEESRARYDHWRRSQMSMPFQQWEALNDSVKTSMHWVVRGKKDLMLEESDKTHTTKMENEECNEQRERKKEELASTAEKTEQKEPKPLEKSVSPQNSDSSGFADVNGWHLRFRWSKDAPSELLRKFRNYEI
UniProt P10515, whole entry, looked up: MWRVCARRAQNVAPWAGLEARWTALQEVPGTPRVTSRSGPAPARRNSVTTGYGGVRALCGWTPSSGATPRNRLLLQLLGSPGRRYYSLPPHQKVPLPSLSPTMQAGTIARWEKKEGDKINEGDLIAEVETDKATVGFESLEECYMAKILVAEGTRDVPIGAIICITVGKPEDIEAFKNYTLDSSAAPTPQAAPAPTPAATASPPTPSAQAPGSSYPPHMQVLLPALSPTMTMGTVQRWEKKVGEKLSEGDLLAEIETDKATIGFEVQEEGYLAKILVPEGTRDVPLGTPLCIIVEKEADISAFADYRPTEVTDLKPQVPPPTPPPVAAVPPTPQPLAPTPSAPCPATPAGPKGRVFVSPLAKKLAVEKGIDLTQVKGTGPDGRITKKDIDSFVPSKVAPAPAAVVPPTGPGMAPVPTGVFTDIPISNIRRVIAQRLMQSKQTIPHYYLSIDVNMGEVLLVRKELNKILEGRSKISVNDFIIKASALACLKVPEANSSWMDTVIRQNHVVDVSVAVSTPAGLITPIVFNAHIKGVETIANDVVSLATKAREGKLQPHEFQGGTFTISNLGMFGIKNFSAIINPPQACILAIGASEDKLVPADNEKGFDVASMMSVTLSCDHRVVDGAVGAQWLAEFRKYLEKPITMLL
UniProt Q9UNQ2: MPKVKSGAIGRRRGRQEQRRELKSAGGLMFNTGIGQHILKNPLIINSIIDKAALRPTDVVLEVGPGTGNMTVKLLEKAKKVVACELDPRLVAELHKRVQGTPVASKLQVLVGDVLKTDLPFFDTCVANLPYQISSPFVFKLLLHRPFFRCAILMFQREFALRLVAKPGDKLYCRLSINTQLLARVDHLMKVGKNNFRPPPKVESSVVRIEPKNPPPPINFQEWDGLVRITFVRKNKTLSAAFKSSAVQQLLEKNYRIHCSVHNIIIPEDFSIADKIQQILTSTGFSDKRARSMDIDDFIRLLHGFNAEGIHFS
UniProt Q4LDG9: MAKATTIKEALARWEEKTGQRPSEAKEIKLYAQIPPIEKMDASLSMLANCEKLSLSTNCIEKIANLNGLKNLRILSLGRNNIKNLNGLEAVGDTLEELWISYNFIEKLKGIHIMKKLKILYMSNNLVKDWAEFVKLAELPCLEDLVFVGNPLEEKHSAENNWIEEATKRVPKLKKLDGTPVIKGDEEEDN

Legend:
Test in all cases: log2 fold change, soluble protein after heating vs DMSO (PISA); higher = thermal stabilisation; K562 lysate, 10 uM; active = over 0.2 and 3.5 SD of the protein, either way, in both replicates (recomputed)
alvocidib = compound: CN1CC[C@H](c2c(O)cc(O)c3c(=O)cc(-c4ccccc4Cl)oc23)[C@H](O)C1 [alvocidib]
In short: (§1)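 K562 pellets were dounce-homogenised in PBS pH 7.4 containing 1 mM MgCl2, and the crude extract, at 1 mg/mL protein, was exposed to 10 μM compound for 30 min. Aliquots were heated for 3 min across 48°C-58°C, pooled, brought to 0.5% NP-40 at 4°C and spun at 21,000xg for 90 min, with the supernatant taken as soluble protein. TMTpro 16plex LC-MS/MS with equalised channel sums quantified that protein. Values are log-two fold changes in thermal stability relative to solvent controls, taken from duplicates.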

Tubastatin A = compound: CN1CCc2c(c3ccccc3n2Cc2ccc(C(=O)NO)cc2)C1 [Tubastatin A]
In short: as §1

[1] = compound: CNC(=O)C1=CC=CC=C1NC2=NC(=NC=C2Cl)NC3=C(C=C(C=C3)N4CCOCC4)OC
In short: as §1

defactinib = compound: CNC(=O)c1ccc(Nc2ncc(C(F)(F)F)c(NCc3nccnc3N(C)S(C)(=O)=O)n2)cc1 [defactinib]
In short: as §1

[2] = compound: CNc1nc(-c2ccc3c(N)n[nH]c3c2)cc(N2C[C@@H](C(=O)NC3CCCCC3)CC[C@H]2C)n1
In short: as §1

encorafenib = compound: COC(=O)N[C@@H](C)CNc1nccc(-c2cn(C(C)C)nc2-c2cc(Cl)cc(NS(C)(=O)=O)c2F)n1 [encorafenib]
In short: as §1

[3] = compound: COC(=O)[C@H](CCSC)NC(=O)C1=C(C=C(C=C1)NC[C@H](CS)N)C2=CC=CC=C2
In short: as §1

alisertib = compound: COc1cc(Nc2ncc3c(n2)-c2ccc(Cl)cc2C(c2c(F)cccc2OC)=NC3)ccc1C(=O)O [alisertib]
In short: as §1

[4] = compound: COc1cc2nc(-c3cc(F)ccc3O)nc(N[C@@H]3CNC[C@H]3C(C)(C)O)c2cc1OC
In short: as §1

gefitinib = compound: COc1cc2ncnc(Nc3ccc(F)c(Cl)c3)c2cc1OCCCN1CCOCC1 [gefitinib]
In short: as §1

Measured: log2 fold change

DNPEP (UniProt Q9ULA0)
inactive: alvocidib 0.02 | Tubastatin A 0.054 | [1] -0.021 | defactinib -0.005 | [2] 0.04 | encorafenib 0.006 | [3] -0.037 | alisertib 0.004 | [4] 0.004 | gefitinib -0.026

DNM1L isoform 2 (UniProt O00429)
inactive: alvocidib -0.108 | Tubastatin A -0.054 | [1] -0.013 | defactinib 0.095 | [2] -0.205 | encorafenib 0.147 | [3] 0.018 | alisertib 0.015 | [4] -0.066 | gefitinib 0.026

DHRS7B (UniProt Q6IAN0)
inactive: alvocidib -0.004 | Tubastatin A 0.142 | [1] 0.048 | defactinib -0.035 | [2] 0.018 | encorafenib 0.053 | [3] -0.008 | alisertib -0.017 | [4] -0.013 | gefitinib 0.024

DNPH1 (UniProt H0Y8X4)
inactive: alvocidib -0.005 | Tubastatin A 0.004 | [1] 0.052 | defactinib 0.012 | [2] 0 | encorafenib 0.001 | [3] 0 | alisertib 0.017 | [4] 0 | gefitinib -0.016

DNAJC1 (UniProt Q96KC8)
inactive: alvocidib 0.016 | Tubastatin A -0.053 | [1] 0.013 | defactinib 0.06 | [2] -0.059 | encorafenib 0.056 | [3] -0.257 | alisertib 0.038 | [4] -0.104 | gefitinib 0.041

DHX36 (UniProt Q9H2U1)
inactive: alvocidib 0.005 | Tubastatin A -0.027 | [1] 0.012 | defactinib -0.001 | [2] -0.02 | encorafenib -0.007 | [3] 0.03 | alisertib -0.003 | [4] 0 | gefitinib -0.015

DHRS2 (UniProt Q13268)
inactive: alvocidib 0.07 | Tubastatin A -0.013 | [1] -0.029 | defactinib 0.012 | [2] -0.051 | encorafenib 0.022 | [3] -0.091 | alisertib 0.01 | [4] 0.011 | gefitinib 0.097

DGKZ (UniProt Q13574)
inactive: alvocidib -0.018 | Tubastatin A -0.108 | [1] 0 | defactinib -0.098 | [2] -0.006 | encorafenib 0.018 | [3] -0.062 | alisertib -0.008 | [4] -0.025 | gefitinib -0.005

DNAJB14 (UniProt H7C494)
inactive: alvocidib -0.02 | Tubastatin A 0.012

DIEXF (UniProt Q68CQ4)
inactive: alvocidib 0.001 | Tubastatin A -0.11 | [1] -0.11 | defactinib -0.003 | [2] -0.021 | encorafenib -0.006 | [3] 0.052 | alisertib -0.037 | [4] 0.011 | gefitinib -0.017

DIS3L2 (UniProt Q8IYB7)
inactive: alvocidib 0.028 | Tubastatin A -0.1 | [1] 0.005 | defactinib -0.034 | [2] -0.08 | encorafenib 0.039 | [3] 0.103 | alisertib 0.005 | [4] 0.008 | gefitinib -0.017

DMD (UniProt P11532)
inactive: alvocidib 0.001 | Tubastatin A 0 | [1] -0.011 | defactinib 0.015 | [2] 0.004 | encorafenib 0.014 | [3] -0.055 | alisertib -0.028 | [4] 0.004 | gefitinib -0.001

DHPS (UniProt P49366)
inactive: alvocidib -0.011 | Tubastatin A 0.064 | [1] 0.016 | defactinib -0.005 | [2] -0.009 | encorafenib -0.024 | [3] -0.006 | alisertib -0.033 | [4] 0 | gefitinib -0.013

DOK1 (UniProt Q99704)
inactive: alvocidib -0.02 | Tubastatin A -0.135 | [1] 0.059 | defactinib 0.059 | [2] -0.005 | encorafenib -0.007 | [3] 0.044 | alisertib 0.082 | [4] 0.071 | gefitinib -0.102

DOLK (UniProt Q9UPQ8)
inactive: alvocidib 0.115

DLGAP4 (UniProt Q9Y2H0)
inactive: alvocidib 0.003 | Tubastatin A 0.001 | [1] -0.011 | defactinib 0 | [2] -0.045 | encorafenib 0.03 | [3] -0.025 | alisertib -0.042 | [4] 0.02 | gefitinib 0.029

DGKE (UniProt P52429)
inactive: alvocidib -0.049 | Tubastatin A 0.084 | [1] 0.052 | defactinib -0.002 | [2] -0.519 | encorafenib -0.238 | [3] 0.126

DIP2A (UniProt Q14689)
inactive: alvocidib 0.022 | Tubastatin A -0.049 | [1] 0.013 | defactinib 0.003 | [2] -0.046 | encorafenib -0.041 | [3] -0.125 | alisertib -0.088 | [4] -0.004 | gefitinib 0.079

DNAJC5 (UniProt Q9H3Z4)
inactive: alvocidib -0.216 | Tubastatin A 0.062 | [1] 0.019 | defactinib 0.011 | [2] 0.054 | encorafenib 0.016 | [3] -0.057 | alisertib -0.119 | [4] 0.019 | gefitinib -0.039

DLG3 isoform 2 (UniProt Q92796)
inactive: alvocidib -0.136 | Tubastatin A 0 | [1] -0.026 | defactinib 0.053 | [2] -0.01 | encorafenib -0.089 | [3] -0.082 | alisertib 0.069 | [4] -0.055 | gefitinib -0.131

DNAJC12 (UniProt Q9UKB3)
inactive: alvocidib -0.055 | Tubastatin A 0.026 | [1] 0.008 | defactinib -0.016 | [2] 0.07 | encorafenib 0.078 | [3] -0.143 | alisertib -0.003 | [4] -0.022 | gefitinib 0.035

DIP2B (UniProt Q9P265)
inactive: alvocidib -0.029 | Tubastatin A 0.016 | [1] 0.019 | defactinib -0.019 | [2] 0.006 | encorafenib 0 | [3] -0.006 | alisertib -0.017 | [4] -0.003 | gefitinib -0.028

DLAT (UniProt P10515)
inactive: alvocidib -0.01 | Tubastatin A 0.099 | [1] -0.047 | defactinib -0.028 | [2] 0.058 | encorafenib -0.019 | [3] -0.037 | alisertib 0.021 | [4] 0.031 | gefitinib -0.003

DNAJB4 (UniProt Q9UDY4)
inactive: alvocidib -0.008 | Tubastatin A -0.073 | [1] 0.033 | defactinib 0.006 | [2] -0.036 | encorafenib 0.109 | [3] -0.002 | alisertib 0.035 | [4] -0.042 | gefitinib 0.009

DMXL2 isoform 3 (UniProt Q8TDJ6)
inactive: alvocidib 0.035 | Tubastatin A -0.017 | [1] 0.003 | defactinib 0.044 | [2] -0.031 | encorafenib 0.061 | [3] 0.05 | alisertib -0.006 | [4] 0 | gefitinib 0.023

DIMT1 (UniProt Q9UNQ2)
inactive: alvocidib 0.02 | Tubastatin A 0.009 | [1] 0.01 | defactinib -0.004 | [2] -0.012 | encorafenib -0.001 | [3] 0.018 | alisertib -0.025 | [4] -0.011 | gefitinib 0.008

Taken from the results shown (2 entries):
DMXL2 isoform 3 (UniProt Q8TDJ6)
inactive: alvocidib 0.035 | Tubastatin A -0.017 | [1] 0.003 | defactinib 0.044 | [2] -0.031 | encorafenib 0.061 | [3] 0.05 | alisertib -0.006 | [4] 0 | gefitinib 0.023

DIMT1 (UniProt Q9UNQ2)
inactive: alvocidib 0.02 | Tubastatin A 0.009 | [1] 0.01 | defactinib -0.004 | [2] -0.012 | encorafenib -0.001 | [3] 0.018 | alisertib -0.025 | [4] -0.011 | gefitinib 0.008

Carrying on:

DNAJB11 (UniProt Q9UBS4)
inactive: alvocidib -0.017 | Tubastatin A 0.064 | [1] -0.017 | defactinib -0.013 | [2] 0.017 | encorafenib 0.011 | [3] -0.014 | alisertib 0.047 | [4] 0.01 | gefitinib -0.003

DNAL1 (UniProt Q4LDG9)
inactive: alvocidib -0.11 | Tubastatin A -0.148 | [1] -0.033 | defactinib -0.03 | [2] 0 | encorafenib -0.093 | [3] 0.045

DNAJC13 (UniProt O75165)
inactive: alvocidib -0.025 | Tubastatin A 0.082 | [1] 0.004 | defactinib 0.02 | [2] -0.014 | encorafenib 0 | [3] 0.03 | alisertib -0.017 | [4] 0.033 | gefitinib 0.003
